Results from patent US11891623B2, “Generation of neural stem cells from human trophoblast stem cells” (Accelerated BioSciences Corp., priority 2010, dated 2024).
At least one structure is not confirmed: it was looked up by name or label, or the drawing left a doubt.

Assays:
PI3K = PI3K inhibitor effect on RA-induced Akt isoforms (flow cytometry, RT-PCR); format: cell-based, human; details: RA 24 hr, inhibitor pretreatment
[1] = test system: intracellular calcium in hTS cells; assay: Real-time live cell calcium imaging in RA-treated hTS cells; format: cell-based, human; details: nifedipine 5 μM, after ER calcium depletion

| Structure (SMILES) | RA-induced expression of Akt isoforms (Akt1, 2, 3) (PI3K) | KCl-dependent L-type calcium channels [1] |
| --- | --- | --- |
| COC[C@H]1OC(=O)c2coc3c2[C@@]1(C)C1=C(C3=O)[C@@H]2CCC(=O)[C@@]2(C)C[C@H]1OC(C)=O [Wortmannin] | inhibited |  |
| COC(=O)C1=C(C)NC(C)=C(C(=O)OC)C1c1ccccc1[N+](=O)[O-] [nifedipine] |  | blocked |
